Assay [1] deals with T1, HaHSFA4 prey (plasmid pGAD424-HaHSFA4) (sunflower (Helianthus annuus)).
T1 construct: also called Prey, HSFA4; not shown: fusion partner encoded by the prey vector pGAD424
T1 chain: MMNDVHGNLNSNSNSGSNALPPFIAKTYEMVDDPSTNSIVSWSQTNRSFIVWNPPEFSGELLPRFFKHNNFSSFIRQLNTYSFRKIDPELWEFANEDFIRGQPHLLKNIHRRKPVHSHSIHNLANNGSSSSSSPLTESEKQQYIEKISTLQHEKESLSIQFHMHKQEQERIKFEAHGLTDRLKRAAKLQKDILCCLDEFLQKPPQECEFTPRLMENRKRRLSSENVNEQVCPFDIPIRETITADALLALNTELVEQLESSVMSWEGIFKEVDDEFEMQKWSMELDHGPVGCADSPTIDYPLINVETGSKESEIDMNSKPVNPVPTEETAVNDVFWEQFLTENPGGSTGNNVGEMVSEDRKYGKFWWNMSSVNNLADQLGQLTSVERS
The assay is described as follows: yeast two-hybrid, growth on selective medium (-His).

Assay [2] deals with T2, HaHSFA9:YFP^C (sunflower (Helianthus annuus)).
T2 construct: also called HaHSFA9 (non-fluorescent)
T2 chain: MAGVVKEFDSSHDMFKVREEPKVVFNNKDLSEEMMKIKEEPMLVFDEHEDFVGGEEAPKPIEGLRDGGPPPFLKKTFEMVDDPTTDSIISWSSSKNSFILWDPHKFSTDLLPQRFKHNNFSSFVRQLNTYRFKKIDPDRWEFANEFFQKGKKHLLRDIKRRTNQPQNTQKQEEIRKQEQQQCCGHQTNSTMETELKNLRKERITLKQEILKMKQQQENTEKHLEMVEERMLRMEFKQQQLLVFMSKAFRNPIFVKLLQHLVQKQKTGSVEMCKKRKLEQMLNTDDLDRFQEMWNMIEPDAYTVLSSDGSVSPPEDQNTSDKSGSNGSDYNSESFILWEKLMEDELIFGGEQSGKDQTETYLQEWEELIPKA
The experiment in a line: BiFC in N. benthamiana leaves, confocal microscopy. Here is the method: 48 h after infiltration, disc sections from the infiltrated leaves were analyzed.
For the experiments in FIG. 16, BiFC was studied under a Leica TCS-SP2 confocal laser-scanning microscope with a HC PL FLUOTAR 20×/0.50 objective. Applicants used standard YFP excitation and detection settings. Image analysis was carried out with Leica LCS software and Adobe Photoshop 7.0. […] The HaHSFA9, HaHSFA4, and hybrid-HSF sequences fused to the non-fluorescent YFP-halves in these constructs were PCR-amplified from the respective effector plasmids used for the transient activation assays (see below). […] The same amount of pBI221 plasmid was used as a negative control.

B1: HaHSFA9Δ166 (bait plasmid pGBT9-HaHSFA9Δ166) (other)
chain: MAGVVKEFDSSHDMFKVREEPKVVFNNKDLSEEMMKIKEEPMLVFDEHEDFVGGEEAPKPIEGLRDGGPPPFLKKTFEMVDDPTTDSIISWSSSKNSFILWDPHKFSTDLLPQRFKHNNFSSFVRQLNTYRFKKIDPDRWEFANEFFQKGKKHLLRDIKRRTNQPQ
notes: N-terminal extension and DBD of HaHSFA9 without the OD; also called HaHSFA9Δ165; bait construct 3; not shown: fusion partner encoded by the bait vector pGBT9
On to B1, for which the binding result in assay [1] is on record as “no binding”.

B2: HaHSFA9:YFP^N (other, not shown: large carriers)
chain: MAGVVKEFDSSHDMFKVREEPKVVFNNKDLSEEMMKIKEEPMLVFDEHEDFVGGEEAPKPIEGLRDGGPPPFLKKTFEMVDDPTTDSIISWSSSKNSFILWDPHKFSTDLLPQRFKHNNFSSFVRQLNTYRFKKIDPDRWEFANEFFQKGKKHLLRDIKRRTNQPQNTQKQEEIRKQEQQQCCGHQTNSTMETELKNLRKERITLKQEILKMKQQQENTEKHLEMVEERMLRMEFKQQQLLVFMSKAFRNPIFVKLLQHLVQKQKTGSVEMCKKRKLEQMLNTDDLDRFQEMWNMIEPDAYTVLSSDGSVSPPEDQNTSDKSGSNGSDYNSESFILWEKLMEDELIFGGEQSGKDQTETYLQEWEELIPKA
notes: also called HaHSFA9 SPYNE fusion
B2: the binding result in assay [2] is listed as “binds”.

The record behind these values is patent publication US20160010105A1 (CONSEJO SUPERIOR DE INVESTIGACIONES CIENTIFICAS CSIC, published 2016).
